Measured values reported in patent publication US8759400B2, “Histone deacetylase inhibitors for enhancing activity of antifungal agents” (MethylGene Inc., priority 2005, dated 2014).
The name of at least one read-out is uncertain.

Tested on: C. albicans (ATCC 90028)
Assay: MIC80 and checkerboard synergy with antifungal agents
Assay type: cell-based, Candida albicans
Conditions: with ketoconazole, 48 hours

Row | SMILES | conc. for 4-fold synergy [µg/mL]
1 | O=C(NOC1CCCCO1)c1cccc(CCc2ccccc2)c1 (stereo not drawn) [Cpd 2] | 1.0
2 | O=C(NO)c1ccc(CN2c3ccccc3NC(=O)[C@H]2Cc2ccc3ccccc3c2)cc1 [Cpd 22] | 0.5
3 | CC(C)(C)[Si](C)(C)OCCN(CCc1c[nH]c2ccccc12)Cc1ccc(/C=C/C(=O)NO)cc1 [Cpd 17] | 0.25
